Test results published in publication PMC10240976.
These are yes or no findings as the source states them, for the method shown. Binding can be weak; no strength is given. Sequences can lack the tags named with a protein.

Molecular target: GABARAPL2 (W3S/M4T) of the LIR(Sp)-GABARAPL2 fusion protein (human)
Test: crystal structure; LIR fused to the N terminus of the mATG8 protein; sitting-drop vapor diffusion at 20°C; the LIR of one fusion molecule binds the mATG8 of another in the crystal; both purified

binding: binds
Binder: LQFEIDDEMEPLYNQAKQMRYGDY (domain or fragment) [SpHfl1 LIR (residues 386-409) of the LIR(Sp)-GABARAPL2 fusion protein]
